Earlier results in US8367098B2, “Unique combinations of antimicrobial compositions” (The Population Council, Inc., priority 2002, dated 2013).
At least one structure is not confirmed: it was looked up by name or label, or the drawing left a doubt.

Details: cited from earlier work

C=C1C[C@H]2[C@@H]3CCC4=CC(=O)CC[C@@H]4[C@H]3CC[C@]2(C)[C@@]1(OC(C)=O)C(C)=O [NES, 16-methylene-17α-acetoxy-19-norpregn-4-ene-3,20-dione]
progestational activity relative to levonorgestrel: 10 times
progestational activity relative to progesterone: 100 times
